Source: the supplement of paper PMC12889115
The other results are listed elsewhere or left out. Values are raw readings; no control value is given beside them.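 In the initial screen, polymyxin B was used at a concentration that permeabilizes Salmonella's outer membrane but not its inner membrane. Maximum growth was set by DMSO wells with or without polymyxin B. Since plates varied, data were ranked per plate, and compounds giving the lowest OD600 advanced as hits.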

System: Salmonella enterica serovar Typhimurium SL1344
Experiment: bacterial growth OD600 after 18 h with compound and polymyxin B; higher = more bacterial growth (less inhibition)
Details: 50 µM, Mueller-Hinton broth

SMILES: CCOC(=O)CC1(NC(=O)C2CCC(=O)N(CCc3ccccn3)C2)CCCCC1 (stereo unspecified)
- bacterial growth OD600 (polymyxin B 1 µg/mL): 1.04

SMILES: O=C(NCc1ccccc1F)c1ccc(N2CCC(NCc3cnn(Cc4ccccc4)c3)CC2)cc1
- bacterial growth OD600 (polymyxin B 0.75 µg/mL): 0.717

SMILES: CCCC(=O)N1CCC2(CCCN(CCCc3ccccc3)C2=O)C1 (stereo unspecified)
- bacterial growth OD600 (polymyxin B 1 µg/mL): 0.968

SMILES: O=C(NCCN1CCCC(O)C1)c1ccc2nc(Cc3cccc(Cl)c3)oc2c1 (stereo unspecified)
- bacterial growth OD600 (polymyxin B 0.75 µg/mL): 0.689

SMILES: CCOC(=O)C1CCN(c2nc3c(OC)ccc(OC)c3cc2CN[C@H]2CCCCNC2=O)CC1
- bacterial growth OD600 (polymyxin B 0.75 µg/mL): 0.884

SMILES: CC(C(=O)N1CCC(n2nccc2NC(=O)c2ccc3c(c2)OCO3)CC1)c1ccccc1 (stereo unspecified)
- bacterial growth OD600 (polymyxin B 1 µg/mL): 0.908

SMILES: COc1ccc(CNC(=O)CCC2CCCN(Cc3ccc(F)cc3F)C2)c(OC)c1 (stereo unspecified)
- bacterial growth OD600 (polymyxin B 1 µg/mL): 1.12

SMILES: O=C(c1ccccc1)C1CCCN(Cc2nc(COc3ccccc3)no2)C1 (stereo unspecified)
- bacterial growth OD600 (polymyxin B 1 µg/mL): 0.788

SMILES: O=C(COc1ccc(N2CCN(c3ccccn3)CC2)nn1)NCC1(c2ccccc2)CCOCC1
- bacterial growth OD600 (polymyxin B 0.75 µg/mL): 0.775

SMILES: COc1ccc(CN2CCOc3ccc(C(C)(O)COc4ccccc4)cc3C2)c(OC)c1 (stereo unspecified)
- bacterial growth OD600 (polymyxin B 0.75 µg/mL): 0.008

SMILES: Cc1c(C(=O)NCc2cccs2)oc2c(F)cccc12
- bacterial growth OD600 (polymyxin B 1 µg/mL): 0.785

SMILES: O=C(NCc1cccnc1Oc1ccccc1)c1ccccn1
- bacterial growth OD600 (polymyxin B 0.75 µg/mL): 0.778

SMILES: O=C(CCC1CCN(Cc2ncc[nH]2)CC1)Nc1ccccc1Cl
- bacterial growth OD600 (polymyxin B 1 µg/mL): 0.902

SMILES: Cc1nccn1CCC(=O)N(C)CC1CCCN(CCc2ccc(Cl)cc2)C1 (stereo unspecified)
- bacterial growth OD600 (polymyxin B 1 µg/mL): 0.664

SMILES: CCOc1ccc2nc(N3CCCN(Cc4cccn4-c4ccccn4)CC3)nc(C)c2c1
- bacterial growth OD600 (polymyxin B 0.75 µg/mL): 0.892

SMILES: C#CCN(Cc1ccco1)C(=O)c1cc(OC)ccc1OC1CCN(C(=O)C2CC2)CC1
- bacterial growth OD600 (polymyxin B 1 µg/mL): 0.449

SMILES: CCOC(=O)N1CCC(N2CCCN(c3nc(C)c4cc(OCC)ccc4n3)CC2)CC1
- bacterial growth OD600 (polymyxin B 0.75 µg/mL): 0.775

SMILES: CN(C(=O)c1ccsc1)C(Cc1ccccc1)C1CCN(C(=O)c2ccc3[nH]ccc3c2)CC1 (stereo unspecified)
- bacterial growth OD600 (polymyxin B 0.75 µg/mL): 0.799

SMILES: COc1ccccc1CC(=O)NC1CC(=O)N(Cc2ccccc2Cl)C1 (stereo unspecified)
- bacterial growth OD600 (polymyxin B 1 µg/mL): 0.651

SMILES: COc1ccc(NC(=O)CCC2CCCN(C(=O)c3occc3C)C2)cc1Cl (stereo unspecified)
- bacterial growth OD600 (polymyxin B 1 µg/mL): 0.929

SMILES: CCOC(=O)C1(CCc2ccccc2)CCCN(C(=O)c2ccc(COC)s2)C1 (stereo unspecified)
- bacterial growth OD600 (polymyxin B 1 µg/mL): 0.007

SMILES: Cc1ccc(CN2CCC(CN(C)Cc3cccn3-c3nccs3)CC2)o1
- bacterial growth OD600 (polymyxin B 1 µg/mL): 0.797

SMILES: O=C(c1coc(COc2cccc(C(F)(F)F)c2)n1)N1CCCCC1CCO (stereo unspecified)
- bacterial growth OD600 (polymyxin B 1 µg/mL): 0.827

SMILES: CCn1nc(C)c(CNCc2cccnc2Oc2ccc(F)cc2F)c1C
- bacterial growth OD600 (polymyxin B 1 µg/mL): 0.995

SMILES: CC(=O)Nc1cc(C(=O)N2CCN(C(=O)c3ccco3)CC2)c2c(c1)nc(C)n2Cc1ccccc1
- bacterial growth OD600 (polymyxin B 0.75 µg/mL): 0.803

SMILES: Cc1nc(C(=O)NC2CC(=O)N(CCCc3ccccc3)C2)cs1 (stereo unspecified)
- bacterial growth OD600 (polymyxin B 1 µg/mL): 1.1

SMILES: Cc1ccccc1CCC1CCCN(C(=O)C2(C)CC2)C1 (stereo unspecified)
- bacterial growth OD600 (polymyxin B 0.75 µg/mL): 0.357

SMILES: COc1cc(-c2n[nH]cc2CN(CCO)Cc2ccccc2)cc(OC)c1OC
- bacterial growth OD600 (polymyxin B 1 µg/mL): 1.03

SMILES: O=C(CC(c1ccccc1)c1ccccc1Cl)N1CCN(CCO)CC1 (stereo unspecified)
- bacterial growth OD600 (polymyxin B 1 µg/mL): 0.936

SMILES: Cc1cc(C(=O)N2CCCC(CCC(=O)Nc3ccc(F)cc3C)C2)nc(C)n1 (stereo unspecified)
- bacterial growth OD600 (polymyxin B 1 µg/mL): 0.869

SMILES: COc1cc(=O)n2c(c1C(=O)N(C)Cc1nccs1)CCN(CCC(C)c1ccc(C)o1)CC2 (stereo unspecified)
- bacterial growth OD600 (polymyxin B 0.75 µg/mL): 0.86
